The record followed here is doi:10.1101/2025.05.30.657104.

Sequences of proteins named here, by UniProt entry; tags and fusion partners are left off.
UniProt P10644: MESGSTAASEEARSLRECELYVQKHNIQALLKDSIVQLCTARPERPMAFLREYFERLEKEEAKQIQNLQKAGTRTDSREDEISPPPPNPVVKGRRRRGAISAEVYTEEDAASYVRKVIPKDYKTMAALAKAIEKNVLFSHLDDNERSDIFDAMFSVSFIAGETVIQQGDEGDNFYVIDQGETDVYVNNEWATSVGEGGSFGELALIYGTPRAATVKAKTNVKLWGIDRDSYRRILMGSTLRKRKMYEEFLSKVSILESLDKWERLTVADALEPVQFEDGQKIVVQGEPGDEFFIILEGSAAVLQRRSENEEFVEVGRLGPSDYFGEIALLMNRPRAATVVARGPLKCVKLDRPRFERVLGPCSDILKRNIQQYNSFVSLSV

Results are given in words; binding and its absence hold for the method and conditions named. In cells and extracts the contact can be indirect. A result given as binding can be weak or reduced; the word gives no strength.

The target of assay [1] is PKA RIα, Rluc PCA reporter (UniProt P10644). In words: split reporter.
Assay [2] has as its target Protein kinase C beta II (PKCβII) WT, Rluc PCA reporter (UniProt P05771). Put plainly: split reporter.

With “Protein kinase C beta II D465H (PKCβII D465H), Rluc PCA reporter (from UniProt P05771-2) (enzyme)”, the binding result in assay [1] and in assay [2] was “binds” in each case.
